Data published in article PMC8989681, “Functional and structural deficiencies of Gemin5 variants associated with neurological disorders” (Life Science Alliance, 2022).
These are yes or no findings as the source states them, for the method shown. In cells and extracts the contact can be indirect. Some binding calls cover weakened binding; strength is not graded here.

Legend:
[1] = molecular target: G5_(845-1508)-WT-TAP (human) (UniProt Q8TEQ6); assay: co-IP; G5_(845-1508)-TAP baits expressed 24 h in HEK293; complexes purified by TAP (IgG Sepharose, TEV protease, calmodulin); endogenous Gemin5 and bait detected by WB with anti-Gemin5; Gemin5 intensity normalised to the purified bait
G5_(845-1508)-L1367P-TAP = molecular target: T1, G5_(845-1508)-L1367P-TAP (human, UniProt Q8TEQ6 845-1508, L1367P); assay: as above
T1 construct: Vector pcDNA3-CTAP; Expressed at lower levels than the WT; also called RBS1 variant L1367P; source: HEK293, transfected, in soluble cell extract; purified by TAP
T1 sequence (looked up): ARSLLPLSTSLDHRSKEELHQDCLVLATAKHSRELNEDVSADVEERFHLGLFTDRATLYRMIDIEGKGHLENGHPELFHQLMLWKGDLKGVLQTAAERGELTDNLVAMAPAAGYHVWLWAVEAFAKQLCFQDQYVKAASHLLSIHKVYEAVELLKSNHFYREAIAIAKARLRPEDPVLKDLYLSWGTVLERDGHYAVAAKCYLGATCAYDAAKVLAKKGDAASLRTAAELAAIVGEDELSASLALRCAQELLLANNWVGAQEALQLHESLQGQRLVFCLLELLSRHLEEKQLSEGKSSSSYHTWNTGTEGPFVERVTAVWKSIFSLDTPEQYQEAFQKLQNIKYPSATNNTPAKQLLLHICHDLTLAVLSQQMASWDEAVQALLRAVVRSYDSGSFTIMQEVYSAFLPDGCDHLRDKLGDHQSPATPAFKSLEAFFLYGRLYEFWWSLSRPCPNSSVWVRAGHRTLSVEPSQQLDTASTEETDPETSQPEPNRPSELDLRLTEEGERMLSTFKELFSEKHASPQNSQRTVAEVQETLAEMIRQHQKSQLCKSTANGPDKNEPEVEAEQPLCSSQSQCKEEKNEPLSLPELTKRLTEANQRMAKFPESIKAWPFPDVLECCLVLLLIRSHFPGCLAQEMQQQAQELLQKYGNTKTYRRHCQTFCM

B1: endogenous Gemin5 protein (natural protein, human (endogenous in HEK293), UniProt Q8TEQ6 1-1508, looked up)
chain: MGQEPRTLPPSPNWYCARCSDAVPGGLFGFAARTSVFLVRVGPGAGESPGTPPFRVIGELVGHTERVSGFTFSHHPGQYNLCATSSDDGTVKIWDVETKTVVTEHALHQHTISTLHWSPRVKDLIVSGDEKGVVFCYWFNRNDSQHLFIEPRTIFCLTCSPHHEDLVAIGYKDGIVVIIDISKKGEVIHRLRGHDDEIHSIAWCPLPGEDCLSINQEETSEEAEITNGNAVAQAPVTKGCYLATGSKDQTIRIWSCSRGRGVMILKLPFLKRRGGGIDPTVKERLWLTLHWPSNQPTQLVSSCFGGELLQWDLTQSWRRKYTLFSASSEGQNHSRIVFNLCPLQTEDDKQLLLSTSMDRDVKCWDIATLECSWTLPSLGGFAYSLAFSSVDIGSLAIGVGDGMIRVWNTLSIKNNYDVKNFWQGVKSKVTALCWHPTKEGCLAFGTDDGKVGLYDTYSNKPPQISSTYHKKTVYTLAWGPPVPPMSLGGEGDRPSLALYSCGGEGIVLQHNPWKLSGEAFDINKLIRDTNSIKYKLPVHTEISWKADGKIMALGNEDGSIEIFQIPNLKLICTIQQHHKLVNTISWHHEHGSQPELSYLMASGSNNAVIYVHNLKTVIESSPESPVTITEPYRTLSGHTAKITSVAWSPHHDGRLVSASYDGTAQVWDALREEPLCNFRGHRGRLLCVAWSPLDPDCIYSGADDFCVHKWLTSMQDHSRPPQGKKSIELEKKRLSQPKAKPKKKKKPTLRTPVKLESIDGNEEESMKENSGPVENGVSDQEGEEQAREPELPCGLAPAVSREPVICTPVSSGFEKSKVTINNKVILLKKEPPKEKPETLIKKRKARSLLPLSTSLDHRSKEELHQDCLVLATAKHSRELNEDVSADVEERFHLGLFTDRATLYRMIDIEGKGHLENGHPELFHQLMLWKGDLKGVLQTAAERGELTDNLVAMAPAAGYHVWLWAVEAFAKQLCFQDQYVKAASHLLSIHKVYEAVELLKSNHFYREAIAIAKARLRPEDPVLKDLYLSWGTVLERDGHYAVAAKCYLGATCAYDAAKVLAKKGDAASLRTAAELAAIVGEDELSASLALRCAQELLLANNWVGAQEALQLHESLQGQRLVFCLLELLSRHLEEKQLSEGKSSSSYHTWNTGTEGPFVERVTAVWKSIFSLDTPEQYQEAFQKLQNIKYPSATNNTPAKQLLLHICHDLTLAVLSQQMASWDEAVQALLRAVVRSYDSGSFTIMQEVYSAFLPDGCDHLRDKLGDHQSPATPAFKSLEAFFLYGRLYEFWWSLSRPCPNSSVWVRAGHRTLSVEPSQQLDTASTEETDPETSQPEPNRPSELDLRLTEEGERMLSTFKELFSEKHASLQNSQRTVAEVQETLAEMIRQHQKSQLCKSTANGPDKNEPEVEAEQPLCSSQSQCKEEKNEPLSLPELTKRLTEANQRMAKFPESIKAWPFPDVLECCLVLLLIRSHFPGCLAQEMQQQAQELLQKYGNTKTYRRHCQTFCM
notes: Gemin5, human, full-length endogenous protein of HEK293 cells; also called full-length Gemin5; source: endogenous, HEK293 soluble cell extract
In the case of B1, the binding [1] is reported as “binds” and the binding (G5_(845-1508)-L1367P-TAP) is reported as “binds”.
